Measured values reported in paper PMC12040169 (PLOS Biology, 2025).
The other results are listed elsewhere or left out.

tested on: T1, CTL2-GFP (C. trachomatis L2/434/Bu, GFP-expressing); design: species or system HeLa; Intracellular C. trachomatis growth in HeLa cells, bulk GFP fluorescence relative to DMSO; settings: bulk GFP, single well; 28.5 h, 10 µM; inhibitor
T1 construct: L2/434/Bu, GFP-expressing

Compound | % of control remaining
O=C(NCCNC(=O)c1ccccc1I)c1ccccn1 [CBK269357] | 152.527%
O=C(Nc1ccc(C(=O)N2CCOCC2)cc1)c1cc(-c2cccnc2)nc2ccc(Cl)cc12 [CBK267725] | 134.671%
O=C(c1ccc(Nc2ccnc3cc(C(F)(F)F)ccc23)cc1)N1CCC(O)(c2cccc(C(F)(F)F)c2)CC1 [CBK012467] | 110.004%
O=C(Nc1ccc(NC(=O)C2CC=CCC2C(=O)O)cc1Cl)C1CCCCC1 (stereo not shown) [CBK268772] | 132.711%
Cc1cc(O)ccc1Nc1cc(-c2ccc3c(c2)OCO3)ncn1 [CBK091053] | 205.067%
O=C(C1CCCCC1)N1CCC(c2n[nH]c3ncccc23)CC1 [CBK284905] | 139.972%
COc1ccc(/C=C(\C)C(=O)NCc2ccc(OC3CCNCC3)cc2)cc1OC [CBK038914T] | 105.633%
CC(=O)Oc1c(C)cc(CN(C)C(C)c2ccncc2)cc1C (stereo not shown) [CBK306915] | 142.187%
COc1ccc(CN2CCN(Cc3cc(Br)ccc3O)CC2)cc1OC [CBK263632] | 107.303%
O=S(=O)(Nc1ccc(-c2nnn[nH]2)cc1)c1cc(Cl)c(Cl)s1 [CBK154745] | 84.8236%
Cc1c(C(=O)Nc2ccc(S(=O)(=O)NCC3CCCO3)cc2)cccc1[N+](=O)[O-] (stereo not shown) [CBK267533] | 143.639%
O=C(Cn1cccn1)NC(Cc1ccsc1)c1nccs1 (stereo not shown) [CBK284666] | 76.6714%
Cc1ccccc1OCC(=O)Oc1ccc(-c2cnc3ccccc3n2)cc1 [CBK264703] | 131.689%
O=C(O)Cc1nn(Cc2ccccc2)c(=O)c2ccccc12 [CBK262315] | 74.2006%
CN(C)Cc1ccccc1-n1cc(-c2cccnc2)nn1 [CBK113064] | 100%
O=C(Nc1ccc2[nH]ccc2c1)c1ccc(Br)cc1Cl [CBK159679] | 74.109%
Nc1ncnc2[nH]c(SCc3nc4ccccc4n3Cc3ccccc3)nc12 [CBK264148] | 112.894%
S=C(NCCN1CCCCC1)NCC1CCCO1 (stereo not shown) [CBK268129] | 76.7883%
Cc1c(C(=O)N2CCOCC2)sc2nc(-c3ccc(Cl)cc3)nn12 [CBK010863] | 100.177%
Cn1cccc1C(=O)Nc1ccccc1N1CCNCC1 [CBK029450T] | 101.195%
CC1CCCN(c2ccc(NS(=O)(=O)c3ccc4[nH]c(=O)[nH]c(=O)c4c3)cc2)C1 (stereo not shown) [CBK286376] | 135.23%
O=C(O)COc1ccccc1/C=C/c1cc(C(F)(F)F)[nH]c(=O)n1 [CBK287017] | 132.919%

A different layout for 2 compounds above.
Cc1ccccc1OCC(=O)Oc1ccc(-c2cnc3ccccc3n2)cc1 [CBK264703]
  % of control remaining: 131.689%
O=C(O)Cc1nn(Cc2ccccc2)c(=O)c2ccccc12 [CBK262315]
  % of control remaining: 74.2006%
